Reference: the supplement of paper PMC8612539
This continues a long series; more values of the same kind are listed elsewhere.

System: Escherichia coli
Assay: minimum inhibitory concentration (MIC)
Protocol: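 Broth microdilution MIC (Sensititre BOPO7F bovine plate, CLSI methods) of 19 antimicrobials against field isolates of P. multocida, M. haemolytica, H. somni (deep nasopharyngeal swabs) and E. coli, Enterococcus spp. (rectal swabs) from weaned dairy heifers. Incubation 16-24 h at 35 C. MIC is the lowest concentration preventing visible growth. Values with <= or > lie at the tested range limits. Trimethoprim-sulfamethoxazole is given as the trimethoprim component of a 1:19 mixture.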

Measured: minimum inhibitory concentration

CN1C[C@@H]2C[C@H]1CN2c1cc2c(cc1F)c(=O)c(C(=O)O)cn2C1CC1 [Danofloxacin]
0.25 µg/mL: isolate (source animal id): 17 | isolate (source animal id): 29 | isolate (source animal id): 38 | isolate (source animal id): 51 | isolate (source animal id): 61 | isolate (source animal id): 198 | isolate (source animal id): 200 | isolate (source animal id): 219
> 1 µg/mL: isolate (source animal id): 32 | isolate (source animal id): 33 | isolate (source animal id): 35 | isolate (source animal id): 39 | isolate (source animal id): 43 | isolate (source animal id): 57 | isolate (source animal id): 65 | isolate (source animal id): 67 | isolate (source animal id): 86 | isolate (source animal id): 92 | isolate (source animal id): 93 | isolate (source animal id): 94 | isolate (source animal id): 189
0.5 µg/mL: isolate (source animal id): 25 | isolate (source animal id): 27 | isolate (source animal id): 59 | isolate (source animal id): 199 | isolate (source animal id): 212
≤ 0.12 µg/mL: isolate (source animal id): 1 | isolate (source animal id): 2 | isolate (source animal id): 3 | isolate (source animal id): 4 | isolate (source animal id): 5 | isolate (source animal id): 6 | isolate (source animal id): 7 | isolate (source animal id): 18 | isolate (source animal id): 19 | isolate (source animal id): 20 | isolate (source animal id): 21 | isolate (source animal id): 22 | isolate (source animal id): 23 | isolate (source animal id): 24 | isolate (source animal id): 26 | isolate (source animal id): 28 | isolate (source animal id): 30 | isolate (source animal id): 31 | isolate (source animal id): 34 | isolate (source animal id): 36 | isolate (source animal id): 37 | isolate (source animal id): 40 | isolate (source animal id): 41 | isolate (source animal id): 42 | isolate (source animal id): 44 | isolate (source animal id): 45 | isolate (source animal id): 46 | isolate (source animal id): 47 | isolate (source animal id): 48 | isolate (source animal id): 49 | isolate (source animal id): 50 | isolate (source animal id): 52 | isolate (source animal id): 53 | isolate (source animal id): 54 | isolate (source animal id): 55 | isolate (source animal id): 56 | isolate (source animal id): 58 | isolate (source animal id): 60 | isolate (source animal id): 62 | isolate (source animal id): 63 | isolate (source animal id): 64 | isolate (source animal id): 66 | isolate (source animal id): 68 | isolate (source animal id): 69 | isolate (source animal id): 70 | isolate (source animal id): 71 | isolate (source animal id): 72 | isolate (source animal id): 73 | isolate (source animal id): 74 | isolate (source animal id): 75 | isolate (source animal id): 76 | isolate (source animal id): 77 | isolate (source animal id): 78 | isolate (source animal id): 79 | isolate (source animal id): 80 | isolate (source animal id): 81 | isolate (source animal id): 82 | isolate (source animal id): 83 | isolate (source animal id): 84 | isolate (source animal id): 85 | isolate (source animal id): 87 | isolate (source animal id): 88 | isolate (source animal id): 89 | isolate (source animal id): 90 | isolate (source animal id): 91 | isolate (source animal id): 96 | isolate (source animal id): 97 | isolate (source animal id): 190 | isolate (source animal id): 191 | isolate (source animal id): 192 | isolate (source animal id): 193 | isolate (source animal id): 194 | isolate (source animal id): 195 | isolate (source animal id): 196 | isolate (source animal id): 197 | isolate (source animal id): 201 | isolate (source animal id): 202 | isolate (source animal id): 203 | isolate (source animal id): 204 | isolate (source animal id): 205 | isolate (source animal id): 206 | isolate (source animal id): 207 | isolate (source animal id): 208 | isolate (source animal id): 209 | isolate (source animal id): 210 | isolate (source animal id): 211 | isolate (source animal id): 213 | isolate (source animal id): 214 | isolate (source animal id): 215 | isolate (source animal id): 216 | isolate (source animal id): 217 | isolate (source animal id): 218 | isolate (source animal id): 220
1 µg/mL: isolate (source animal id): 95
